# Where “and” joins values, the source holds several entries; their conditions need not be identical. Equal entries are not always repeated. The list shows a part of the results. Single wells; the ratio to wells without odorant was worked out here, and repeats agree poorly.
# Assays:
# Assay in all cases: odorant receptor activation (CRE luciferase / Renilla) (fold of no-odor wells); higher = more activation
# Conditions in all cases: 100 µM
# [1] = system: OR2AG2 Y28C/R54P/R299G clone 1486
# OR2AJ1 M1V clone 1448 = system: OR2AJ1 M1V clone 1448
# OR2AK2 V188M clone 1415 = system: OR2AK2 V188M clone 1415
# OR2AP1 clone 1256 = system: OR2AP1 clone 1256
# OR2AT4 clone 1522 = system: OR2AT4 clone 1522
# OR2B11 clone 1418 = system: OR2B11 clone 1418
# OR2B2 clone 1333 = system: OR2B2 clone 1333
# OR2B2 clone 1544 = system: OR2B2 clone 1544
# OR2B3 clone 1063 = system: OR2B3 clone 1063
# OR2B6 clone 1436 = system: OR2B6 clone 1436
Structure (SMILES),odorant receptor activation [1],odorant receptor activation (OR2AJ1 M1V clone 1448),odorant receptor activation (OR2AK2 V188M clone 1415),odorant receptor activation (OR2AP1 clone 1256),odorant receptor activation (OR2AT4 clone 1522),odorant receptor activation (OR2B11 clone 1418),odorant receptor activation (OR2B2 clone 1333),odorant receptor activation (OR2B2 clone 1544),odorant receptor activation (OR2B3 clone 1063),odorant receptor activation (OR2B6 clone 1436)
CCC(C)=O [2-butanone],1.02,0.965,1.19,1.39,1.25,1.51,0.876,1.14,7.1,1.23
CCOc1cc(C=O)ccc1O [ethyl vanillin],1.19 and 2.44 and 1.28,1.34 and 1.56 and 1.32,1.11 and 1.2,1.85 and 1,1.32 and 2.54 and 1.52,0.748 and 1.04,2.16 and 1.26,1.4,1.51 and 0.966,1.01 and 1.63
CCCCOC(C)=O [butyl acetate],0.74,0.139,0.225,0.809,1.16,0.298,0.762,0.934,1.26,0.23
CS [methanethiol],0.821,0.894,0.794,0.692,0.917,0.839,0.84,0.995,1.04,0.91

# Reference: the odorant receptor screen of Mainland et al. (2015)
